# Screening data, single-dose tests

Chains of the proteins cited; added tags and fusions are not shown.
UniProt I6X8D2, whole entry: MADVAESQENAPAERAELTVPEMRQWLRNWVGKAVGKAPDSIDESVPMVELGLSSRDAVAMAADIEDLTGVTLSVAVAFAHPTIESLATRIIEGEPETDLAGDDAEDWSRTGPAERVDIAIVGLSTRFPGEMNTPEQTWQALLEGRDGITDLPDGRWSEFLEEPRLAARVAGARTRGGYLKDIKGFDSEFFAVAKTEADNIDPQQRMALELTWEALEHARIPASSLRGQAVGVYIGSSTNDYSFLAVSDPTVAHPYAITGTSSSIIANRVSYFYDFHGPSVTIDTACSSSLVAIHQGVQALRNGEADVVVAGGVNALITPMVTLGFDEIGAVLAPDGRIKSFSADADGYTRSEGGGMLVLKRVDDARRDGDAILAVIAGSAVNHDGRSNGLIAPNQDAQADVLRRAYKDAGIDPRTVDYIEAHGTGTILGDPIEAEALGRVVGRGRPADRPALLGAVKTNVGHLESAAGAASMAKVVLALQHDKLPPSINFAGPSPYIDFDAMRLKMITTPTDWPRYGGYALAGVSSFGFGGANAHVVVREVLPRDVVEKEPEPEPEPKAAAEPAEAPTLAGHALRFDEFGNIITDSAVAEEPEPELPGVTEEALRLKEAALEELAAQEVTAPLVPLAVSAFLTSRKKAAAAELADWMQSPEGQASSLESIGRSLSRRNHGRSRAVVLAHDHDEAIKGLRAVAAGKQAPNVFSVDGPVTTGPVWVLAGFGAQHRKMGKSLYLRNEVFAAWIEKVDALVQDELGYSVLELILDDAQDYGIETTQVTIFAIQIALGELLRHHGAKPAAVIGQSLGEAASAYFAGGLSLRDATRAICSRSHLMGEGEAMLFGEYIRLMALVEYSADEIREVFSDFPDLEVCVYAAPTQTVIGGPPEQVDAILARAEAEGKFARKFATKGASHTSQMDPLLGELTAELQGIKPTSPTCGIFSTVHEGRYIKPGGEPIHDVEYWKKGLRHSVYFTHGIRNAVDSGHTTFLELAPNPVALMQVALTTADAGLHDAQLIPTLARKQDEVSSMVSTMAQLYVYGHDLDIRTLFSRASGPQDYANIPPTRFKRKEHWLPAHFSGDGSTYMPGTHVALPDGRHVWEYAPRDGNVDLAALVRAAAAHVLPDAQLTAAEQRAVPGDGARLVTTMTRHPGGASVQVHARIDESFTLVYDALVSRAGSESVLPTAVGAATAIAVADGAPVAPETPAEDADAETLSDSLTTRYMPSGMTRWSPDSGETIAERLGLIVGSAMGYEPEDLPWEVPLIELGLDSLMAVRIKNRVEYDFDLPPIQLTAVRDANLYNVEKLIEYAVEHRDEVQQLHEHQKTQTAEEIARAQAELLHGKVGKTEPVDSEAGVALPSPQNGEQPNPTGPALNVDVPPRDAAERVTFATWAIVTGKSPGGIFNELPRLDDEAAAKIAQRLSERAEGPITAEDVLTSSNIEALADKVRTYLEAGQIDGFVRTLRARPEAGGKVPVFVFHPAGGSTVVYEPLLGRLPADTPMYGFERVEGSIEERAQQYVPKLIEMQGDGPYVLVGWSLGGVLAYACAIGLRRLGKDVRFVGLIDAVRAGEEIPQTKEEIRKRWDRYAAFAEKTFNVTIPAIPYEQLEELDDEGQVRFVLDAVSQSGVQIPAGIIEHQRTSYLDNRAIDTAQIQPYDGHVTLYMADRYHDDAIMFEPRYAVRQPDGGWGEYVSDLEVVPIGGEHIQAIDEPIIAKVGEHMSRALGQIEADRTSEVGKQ
UniProt P9WPC5, whole entry: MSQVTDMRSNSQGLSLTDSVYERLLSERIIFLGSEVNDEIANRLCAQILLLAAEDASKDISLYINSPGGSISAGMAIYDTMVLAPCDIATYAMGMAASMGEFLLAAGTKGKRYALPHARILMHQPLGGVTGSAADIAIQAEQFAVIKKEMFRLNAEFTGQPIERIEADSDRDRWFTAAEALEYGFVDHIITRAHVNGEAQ
UniProt P9WPC3, whole entry partner: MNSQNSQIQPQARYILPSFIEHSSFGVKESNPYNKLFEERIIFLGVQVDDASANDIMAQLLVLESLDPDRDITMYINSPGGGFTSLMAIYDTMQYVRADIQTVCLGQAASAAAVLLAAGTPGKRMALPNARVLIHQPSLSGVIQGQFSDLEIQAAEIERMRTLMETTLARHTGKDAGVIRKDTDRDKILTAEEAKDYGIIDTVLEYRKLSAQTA

A: 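Cell assay of Leishmania donovani living inside macrophages; the read-out is not stated. Tested at 30 µM. Higher reads as stronger inhibition (inferred: compounds with an IC50 in retests scored well above the rest). Size under these conditions: about 69,000 compounds, about 1,000 of them at 50% or above in at least one test.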
B: 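Enzyme assay of the thioesterase domain of polyketide synthase 13; the read-out is not stated. Target: Polyketide synthase Pks13, Mycobacterium tuberculosis (UniProt I6X8D2). Concentration: 30 µM. The record gives no direction; the compounds picked for IC50 retests had high values, so higher reads as stronger inhibition. Size under these conditions: about 67,000 compounds, about 300 of them at 50% or above in at least one test.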
C: 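ClpP1P2, Mycobacterium tuberculosis (UniProt P9WPC5 and UniProt P9WPC3). Protease assay of ClpP1P2, read by the AMC dye that it sets free. Concentration: 50 µM. Higher reads as stronger inhibition, judged from the few compounds that gave an IC50. Most other retested compounds had strongly negative values. Of about 69,000 compounds tested this way, about 10 (0.015%) reached 50% or more in at least one test.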
D: 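Whole-parasite assay of Trypanosoma brucei over 72 hours; the read-out is not stated. Concentration: 30 µM. Direction is inferred from retests: higher values go with stronger inhibition. Values scatter widely below zero; nearly all retest evidence comes from the higher of the two concentrations used. Size under these conditions: about 64,000 compounds, about 940 of them at 50% or above in at least one test.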

Results are given as percent effect. How 0% and 100% were set is not recorded. Most values in the screen are low, and negative values occur. The compounds are a random part of those screened. Two or more numbers in one place are separate tests of the same structure; such repeats can differ widely. A dash means the value is not listed here; it may have been measured.

SMILES,A,B,C,D
COc1ccc(CCCC(=O)N2CCCC(n3cncn3)C2)cc1 (configuration not stated),23.43,-18.42,-9.148,-39.73
Cl.Cl.c1ccc(NCc2cn3c(n2)CNCC3)nc1,4.938,-,-,12.97
CC(=O)N(Cc1ncc(C)o1)C1CCN(CCOc2ccccc2)C1 (configuration not stated),-15.47 and -6.854,11.47,6.965,-36.92
CCCNC(=O)c1cc2c(s1)CCN2C(=O)c1ccccc1,-6.17,-43.01,-2.978,-5.969
CCCNCc1ccc(OCc2ccc3c(c2)OCCO3)cc1,-,15.22,20.56,-
CC(C)CC(NC(=O)CSc1ccc(F)c(Cl)c1)C(=O)O (configuration not stated),19.18,3.143,-2.182,-26.73
CN(CCc1ccccn1)C(=O)Nc1cccnc1-n1cccn1,2.456,2.282,3.797,5.436
CCN(Cc1ccccc1)C(=O)CCN1CC(O)C1,15.33,-37.73,9.82,15.69
CCS(=O)(=O)N1CCc2ccc(NC(=O)Nc3cccc(C)c3)cc21,25.34,14.58,4.895,-20.24
CN(Cc1ccc(C(=O)O)cc1)C(=O)c1sccc1OC(F)F,18.71,14.63,-9.683,-21.52
O=C(NCCO)Nc1cnc2cc(Cl)ccc2c1O,10.91,-17.41,-6.093,10.01
O=C(NCc1cccnc1)N[C@H]1CC[C@@]2(CCC(=O)N2CC2CC2)CC1.O=C(O)C(F)(F)F,33.45,-,-,-14.95
O=C(NCCOCCO)c1cccnc1Oc1ccc(Cl)cc1,18.54,-29.39,11.43,-20.74
[H][C@@]12CN(Cc3ccccc3F)C[C@]1([H])N(CCCN1CCOCC1)C(=O)O2,-11.33,-,-,-54.08
Nc1nccc(N2CCCC(CO)(CCOc3ccccc3)C2)n1 (configuration not stated),22.93,-23.09,-4.134,82.96
CC(C)NCC1(O)CCCN(CCC2CCCCC2)C1=O (configuration not stated),22.71,-4.603,-4.918,-15.72
CC(=O)N1CCN([C@@H]2CCC[C@@H](N(C)C(=O)C3CC3)[C@H]2O)CC1,0.5269 and 11.64,-1.3,-17.02,-36.03
COc1ccc(NC(=O)N2CCCC2c2ccco2)c(OC)c1 (configuration not stated),7.384,-6.46,6.281,-38.79
CN(C)C(=O)c1sc2ncccc2c1C1CNCCO1.Cl (configuration not stated),-0.616,-,-,0
NC(=O)C1CCN(Cn2nc(-c3ccc(F)cc3)oc2=O)CC1,-5.398,-4.974,4.578,-29.88
CCN1Cc2c(C(=O)NC)ncn2-c2ccccc2S1(=O)=O,2.291,1.78,-12.51,-17.83
O=C(c1cscn1)N1CCCC(n2cncn2)C1 (configuration not stated),-3.89,-6.249,-3.556,11.73
CC1c2ncc(CNC(=O)C3CC3)n2CCN1CC1CCC1 (configuration not stated),-,7.002,-7.452,-
CC(C)C1CN(Cc2cnc(N(C)C)nc2)CCCN1CC1CC1 (configuration not stated),-3.41,0.3331,-6.709,-75.68
CCc1c(C)nc2ccccc2c1N1CCC(NC(C)=O)CC1,26.45,-19.28,9.817,4.165
CC(c1ccccc1Cl)N(C)Cc1nc2c(cnn2C)c(=O)[nH]1 (configuration not stated),30.09,-6.258,-19.41,-
COCCCN1CC2(CCN(Cc3ncc[nH]3)CC2)CC1=O,24.54,-31.34,10.53,4.947
[H][C@@]12CCC(=O)N(CC(C)C)[C@]1([H])CCN(C(=O)CN1CCC(C)=N1)C2,21.2,-,-,0.4892
Cn1c(CN2CCOC(c3nc(C(C)(C)C)n[nH]3)C2)nnc1C1CC1 (configuration not stated),1.752,-20.45,-2.683,-35.83
Cc1nn(C)c(C)c1C1CCCN1Cc1nc(C2CC2)no1 (configuration not stated),1.182,-,17.09,-51.54
Cc1cccc(-c2nc(C)nn2CC(=O)NCC(C)C)c1,5.774,-8.969,-20.11,-6.305
CCCNc1nc(CS(=O)(=O)c2ccccc2)cs1,-74.49,-4.305,-1.602,-32.25
Fc1ccccc1Cn1c(C2CCNCC2)cc2cccnc21,-,5.865,-18.26,-
c1ccc(OCCNCc2cccs2)nc1,46.82,-3.196,-2.689,-
CN1CCOC[C@H]1c1nc(C(C)(C)C)c[nH]1,9.713,-0.6233,-3.299,-45.84
Cc1cccc(OCCC(=O)N(C)CCNS(C)(=O)=O)c1C,-0.7512,-15.94,0.04463,57.14
CC(=O)N1CCC(N2CCN3C(=O)N(c4ccccc4)C[C@H]3C2)CC1,-,-10.83,-1.274,-

For reference, 4 entries once more:

| SMILES | A | B | C | D |
|---|---|---|---|---|
| `[H][C@@]12CN(Cc3ccccc3F)C[C@]1([H])N(CCCN1CCOCC1)C(=O)O2` | -11.33 | - | - | -54.08 |
| `CC(C)NCC1(O)CCCN(CCC2CCCCC2)C1=O` (configuration not stated) | 22.71 | -4.603 | -4.918 | -15.72 |
| `NC(=O)C1CCN(Cn2nc(-c3ccc(F)cc3)oc2=O)CC1` | -5.398 | -4.974 | 4.578 | -29.88 |
| `CN1CCOC[C@H]1c1nc(C(C)(C)C)c[nH]1` | 9.713 | -0.6233 | -3.299 | -45.84 |

Measurements from “University of Dundee, Small-Polar-MMV Screening Library” (2021), ChEMBL document CHEMBL3988442.